The values below come from PMC11982200.

Protein sequences, listed by entry. Tags and fused reporters are not part of them. Residues count along the entry.
UniProt O94925, residues 55-669: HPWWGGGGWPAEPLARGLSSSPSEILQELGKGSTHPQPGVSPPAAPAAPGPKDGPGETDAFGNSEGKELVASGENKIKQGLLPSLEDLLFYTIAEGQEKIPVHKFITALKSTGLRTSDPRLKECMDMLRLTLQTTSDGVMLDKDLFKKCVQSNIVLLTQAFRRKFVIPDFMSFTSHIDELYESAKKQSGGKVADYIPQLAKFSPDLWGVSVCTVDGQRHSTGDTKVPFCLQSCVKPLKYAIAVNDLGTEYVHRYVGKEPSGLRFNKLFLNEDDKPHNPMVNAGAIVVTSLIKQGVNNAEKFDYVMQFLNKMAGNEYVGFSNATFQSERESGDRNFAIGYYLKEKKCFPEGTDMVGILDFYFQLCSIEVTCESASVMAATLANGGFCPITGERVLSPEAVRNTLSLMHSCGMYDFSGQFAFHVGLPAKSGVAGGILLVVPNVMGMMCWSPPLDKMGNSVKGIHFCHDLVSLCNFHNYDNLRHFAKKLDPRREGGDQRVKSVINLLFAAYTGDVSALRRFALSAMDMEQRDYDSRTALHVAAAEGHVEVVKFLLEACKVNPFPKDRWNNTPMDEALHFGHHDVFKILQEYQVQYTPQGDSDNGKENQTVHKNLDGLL

In the assay the target is KGA overexpressed in HepG2 cells (human) (UniProt O94925). In words: affinity purification with mass spectrometry; immunoprecipitate from lysate of HepG2 cells overexpressing KGA; SDS-PAGE, silver staining, target lane excised, LC-MS/MS.

These are yes or no findings as the source states them, for the method shown. Binding seen in cells or lysates may run through a third protein. Here binding means that the protein was enriched with, or labelled near, the bait; the list need not be complete.

B1: OGT, endogenous (enzyme, UniProt O15294 1-1046)
chain: MASSVGNVADSTEPTKRMLSFQGLAELAHREYQAGDFEAAERHCMQLWRQEPDNTGVLLLLSSIHFQCRRLDRSAHFSTLAIKQNPLLAEAYSNLGNVYKERGQLQEAIEHYRHALRLKPDFIDGYINLAAALVAAGDMEGAVQAYVSALQYNPDLYCVRSDLGNLLKALGRLEEAKACYLKAIETQPNFAVAWSNLGCVFNAQGEIWLAIHHFEKAVTLDPNFLDAYINLGNVLKEARIFDRAVAAYLRALSLSPNHAVVHGNLACVYYEQGLIDLAIDTYRRAIELQPHFPDAYCNLANALKEKGSVAEAEDCYNTALRLCPTHADSLNNLANIKREQGNIEEAVRLYRKALEVFPEFAAAHSNLASVLQQQGKLQEALMHYKEAIRISPTFADAYSNMGNTLKEMQDVQGALQCYTRAIQINPAFADAHSNLASIHKDSGNIPEAIASYRTALKLKPDFPDAYCNLAHCLQIVCDWTDYDERMKKLVSIVADQLEKNRLPSVHPHHSMLYPLSHGFRKAIAERHGNLCLDKINVLHKPPYEHPKDLKLSDGRLRVGYVSSDFGNHPTSHLMQSIPGMHNPDKFEVFCYALSPDDGTNFRVKVMAEANHFIDLSQIPCNGKAADRIHQDGIHILVNMNGYTKGARNELFALRPAPIQAMWLGYPGTSGALFMDYIITDQETSPAEVAEQYSEKLAYMPHTFFIGDHANMFPHLKKKAVIDFKSNGHIYDNRIVLNGIDLKAFLDSLPDVKIVKMKCPDGGDNADSSNTALNMPVIPMNTIAEAVIEMINRGQIQITINGFSISNGLATTQINNKAATGEEVPRTIIVTTRSQYGLPEDAIVYCNFNQLYKIDPSTLQMWANILKRVPNSVLWLLRFPAVGEPNIQQYAQNMGLPQNRIIFSPVAPKEEHVRRGQLADVCLDTPLCNGHTTGMDVLWAGTPMVTMPGETLASRVAASQLTCLGCLELIAKNRQEYEDIAVKLGTDLEYLKKVRGKVWKQRISSPLFNTKQYTMELERLYLQMWEHYAAGNKPDHMIKPVEVTESA
Take B1: the binding entry is listed as “binds”.
